PubChem BioAssay AID1671195 – Yale University | 2021

Test: 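Genes whose knockdown alters LDL uptake in liver cancer cells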 (primary screen)
Cell system: human Huh7 hepatoma cells
Knock-down reagent: siRNA pool against human genes, 18 nM
Timing: about 2 to 2.5 days of knockdown, then 8 h LDL uptake
Conditions: DiI-labelled LDL at 30 µg/ml for 8 h, in lipoprotein-deficient serum medium
Measured: 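Per-cell DiI-LDL intensity by automated imaging; well means scaled to the plate median and given as a robust z-score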
Direction: robust z-score: higher = more LDL uptake after knockdown
Call rule: 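a gene counts as active if at least two replicate z-scores exceed ±2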
The whole screen tested about 22,000 reagents; this is an unselected part. About 1,510 of all reagents (6.9%) were called active. 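Active includes knockdowns raising or lowering LDL uptake; positive z-scores mean more uptake, negative mean less.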 No sequences are given here.

{"gene":"PDCD10","robust z-score, replicate 1":-1.13,"robust z-score, replicate 2":-0.446,"robust z-score, replicate 3":-0.736,"activity call":"inactive"}
{"gene":"DTX3","robust z-score, replicate 1":-0.0179,"robust z-score, replicate 2":0.267,"robust z-score, replicate 3":0.0543,"activity call":"inactive"}
{"gene":"LOC388620 (retired record)","robust z-score, replicate 1":-0.0881,"robust z-score, replicate 2":0.024,"robust z-score, replicate 3":0.318,"activity call":"inactive"}
{"gene":"ZFP1","robust z-score, replicate 1":0.247,"robust z-score, replicate 2":0.544,"robust z-score, replicate 3":0.0637,"activity call":"inactive"}
{"gene":"KCNJ9","robust z-score, replicate 1":-0.509,"robust z-score, replicate 2":-1.37,"robust z-score, replicate 3":-0.206,"activity call":"inactive"}
{"gene":"KATNIP","robust z-score, replicate 1":-1.34,"robust z-score, replicate 2":-1.75,"robust z-score, replicate 3":-1.15,"activity call":"inactive"}
{"gene":"SLC22A16","robust z-score, replicate 1":0.462,"robust z-score, replicate 2":0.569,"robust z-score, replicate 3":0.393,"activity call":"inactive"}
{"gene":"SLC27A2","robust z-score, replicate 1":-1.01,"robust z-score, replicate 2":-0.57,"robust z-score, replicate 3":-0.551,"activity call":"inactive"}
{"gene":"EMCN","robust z-score, replicate 1":0.674,"robust z-score, replicate 2":0.609,"robust z-score, replicate 3":1.31,"activity call":"inactive"}
{"gene":"UBAC2","robust z-score, replicate 1":0.932,"robust z-score, replicate 2":-0.153,"robust z-score, replicate 3":0.263,"activity call":"inactive"}
{"gene":"PLS3","robust z-score, replicate 1":1.32,"robust z-score, replicate 2":2.77,"robust z-score, replicate 3":1.04,"activity call":"inactive"}
{"gene":"COMMD10","robust z-score, replicate 1":0.719,"robust z-score, replicate 2":0.507,"robust z-score, replicate 3":0.574,"activity call":"inactive"}
{"gene":"CCR10","robust z-score, replicate 1":-0.562,"robust z-score, replicate 2":-0.854,"robust z-score, replicate 3":-0.689,"activity call":"inactive"}
{"gene":"MND1","robust z-score, replicate 1":-0.933,"robust z-score, replicate 2":-1.03,"robust z-score, replicate 3":-0.472,"activity call":"inactive"}
{"gene":"BBS9","robust z-score, replicate 1":-1.02,"robust z-score, replicate 2":0.292,"robust z-score, replicate 3":-1.49,"activity call":"inactive"}
{"gene":"PLA1A","robust z-score, replicate 1":-1.77,"robust z-score, replicate 2":-1.71,"robust z-score, replicate 3":-1.95,"activity call":"inactive"}

An excerpt taken from the entries so far, for reference:
{"gene":"KCNJ9","robust z-score, replicate 1":-0.509,"robust z-score, replicate 2":-1.37,"robust z-score, replicate 3":-0.206,"activity call":"inactive"}
{"gene":"KATNIP","robust z-score, replicate 1":-1.34,"robust z-score, replicate 2":-1.75,"robust z-score, replicate 3":-1.15,"activity call":"inactive"}
